The values that follow come from paper PMC8981703 (BMC Medicine, 2022).

For the data set, the system named is Chinese patients with RRMM. The data set is described as follows: MARCH: safety (TEAEs, CTCAE version 4.03), exposure, dose modification, disposition. The data set is classed as in vivo. As to the method: Response assessment was performed every 28 days on day 1 of each cycle. Adverse event (AE) was assessed using the NCI Common Terminology Criteria for Adverse Events (CTCAE) version 4.03. […] Plasma concentrations were determined at the following distinct time points: pre-dose, 0.5 h, 1 h, 1.5 h, 2 h, 3 h, 4 h, 5 h, 6 h, 8 h, 10 h, 24 h, and 48 h. Pharmacokinetics ethnicity sensitivity analysis was performed to evaluate the potential impact of ethnic factors on the acceptability and difference in the data of Chinese and western patients.
Patients who received at least 1 dose of study treatment (modified intent-to-treat [mITT]/safety population) were used for efficacy and safety analysis. Demographics, baseline disease characteristics, and prior anti-MM therapies were summarized for the mITT populations. For the primary analysis of ORR, the primary endpoint, the sample size of 82 patients would provide 80% power to detect a statistical significance with the target ORR of 28% against the threshold ORR (i.e., null hypothesis) of 15% (one-sided α=0.025); statistical significance would be declared if the lower bound of the 95% confidence interval (CI) would be greater than 15%. Time to event endpoints including PFS, OS, and DOR were analyzed using the Kaplan-Meier method.

As for `O=C(/C=C\n1cnc(-c2cc(C(F)(F)F)cc(C(F)(F)F)c2)n1)NNc1cnccn1` [selinexor, Selinexor], the “median weekly dose received” value (in vivo) was 113.7 mg. Also, the median treatment duration by setting is: (patients who did not have dose reduction) 4.3 weeks; (patients who had dose reduction) 16.6 weeks.
